Some entries share one result that the patent states for a list of compounds. For at least one compound, name, drawing or mass did not settle the structure.
System: Wolfram beta cells
Test: In vitro insulin and glucagon secretion assay, Wolfram beta cells
Format: cell-based, human
Settings: both control and WFS1 mutant cells; independent of genotype and secretagogue
Protocol: Wolfram and control iPSCs or fibroblasts were incubated with indicated dosages of thapsigargin (TG) or tunicamycin (TM) (Both were from Sigma) for 6 hours after an overnight starvation. 1 mM Sodium 4-phenylbutyrate (4PBA) (EMD Chemicals Inc.) was administrated one hour prior to and through TG or TM treatment. Cells were harvested and subjected to RNA and protein analysis. In vitro differentiated beta cells were treated with 10 nM TG for 12 hours, or 0.5 μg/ml TM for 6 hours with or without 1 mM 4PBA treatment one hour prior to and through TG or TM treatment. For long-term 4PBA treatment, cells were incubated with 1 mM 4PBA starting on day 9 of differentiation, when cells reached pancreatic endoderm stage, and maintained until day 15. Then cells were subjected to insulin secretion, RNA and protein analysis. RNA was isolated using RNAeasy plus kit (Qiagen). cDNA was generated by using RT kit (Promega). Primers for PCR analysis were as follows: XBP-1 for gel-imaging (Lee, Won et al.) forward 5′ […] […] GRP78 protein level was determined by western blot using mouse-anti GRP78 antibody (Santa Cruz, sc-166490).
Cells were cultured in 12-well dishes. […] Human C-peptide concentration in the medium was measured by ultra-sensitive human C-peptide ELISA kit according to manufacturer's instructions (Mercodia). Glucagon levels in medium were measured by using Glucagon ELISA kit (ALPCO Diagnostics).

CCCC(=O)Nc1ncnc2c1ncn2[C@@H]1O[C@@H]2COP(=O)(O)O[C@H]2[C@H]1OC(=O)CCC [DBcAMP, dibutyl cAMP]
increase in C-peptide secretion: 2-4 fold

From US20180237751A1, “METHOD FOR GENERATING BETA CELLS” (THE TRUSTEES OF COLUMBIA UNIVERSITY IN THE CITY OF NEW YORK, priority 2011, published 2018)
